One compound from article PMC9030932, “Development of Dibenzothiazepine Derivatives as Multifunctional Compounds for Neuropathic Pain” (Pharmaceuticals, 2022) can be followed below.

By UniProt entry, the sequences of proteins in these tests, tags left out.
UniProt P23975, whole entry: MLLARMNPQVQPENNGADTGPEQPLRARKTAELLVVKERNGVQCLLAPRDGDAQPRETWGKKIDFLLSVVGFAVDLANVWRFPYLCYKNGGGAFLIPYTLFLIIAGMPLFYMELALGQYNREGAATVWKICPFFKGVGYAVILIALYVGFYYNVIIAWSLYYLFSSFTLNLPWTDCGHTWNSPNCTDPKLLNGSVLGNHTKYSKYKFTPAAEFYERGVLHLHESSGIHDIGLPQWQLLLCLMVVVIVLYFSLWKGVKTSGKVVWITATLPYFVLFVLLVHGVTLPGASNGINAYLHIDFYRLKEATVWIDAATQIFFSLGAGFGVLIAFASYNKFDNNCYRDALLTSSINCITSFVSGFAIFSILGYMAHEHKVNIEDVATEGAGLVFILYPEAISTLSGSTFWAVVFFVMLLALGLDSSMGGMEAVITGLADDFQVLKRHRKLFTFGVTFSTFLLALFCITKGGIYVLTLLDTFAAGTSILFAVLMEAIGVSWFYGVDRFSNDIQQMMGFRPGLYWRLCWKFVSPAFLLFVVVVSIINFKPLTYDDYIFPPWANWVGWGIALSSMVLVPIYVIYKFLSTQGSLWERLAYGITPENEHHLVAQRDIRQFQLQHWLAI
UniProt Q01959, whole entry: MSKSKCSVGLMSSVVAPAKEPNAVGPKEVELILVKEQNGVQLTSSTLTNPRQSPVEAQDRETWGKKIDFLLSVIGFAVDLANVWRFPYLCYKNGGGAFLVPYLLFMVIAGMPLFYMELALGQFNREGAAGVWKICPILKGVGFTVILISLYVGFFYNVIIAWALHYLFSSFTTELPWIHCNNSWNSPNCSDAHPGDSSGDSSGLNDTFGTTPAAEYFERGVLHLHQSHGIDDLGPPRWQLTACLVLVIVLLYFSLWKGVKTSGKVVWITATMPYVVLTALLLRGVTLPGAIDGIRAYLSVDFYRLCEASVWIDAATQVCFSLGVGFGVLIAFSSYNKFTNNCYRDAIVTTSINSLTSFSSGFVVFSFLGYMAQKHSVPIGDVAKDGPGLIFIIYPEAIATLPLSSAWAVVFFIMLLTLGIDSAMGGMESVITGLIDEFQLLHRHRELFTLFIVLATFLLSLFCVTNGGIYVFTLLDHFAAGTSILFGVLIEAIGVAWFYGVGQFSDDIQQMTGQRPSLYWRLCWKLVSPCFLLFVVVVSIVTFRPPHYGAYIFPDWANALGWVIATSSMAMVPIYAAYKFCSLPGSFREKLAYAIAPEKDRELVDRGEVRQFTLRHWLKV
UniProt P31645, whole entry: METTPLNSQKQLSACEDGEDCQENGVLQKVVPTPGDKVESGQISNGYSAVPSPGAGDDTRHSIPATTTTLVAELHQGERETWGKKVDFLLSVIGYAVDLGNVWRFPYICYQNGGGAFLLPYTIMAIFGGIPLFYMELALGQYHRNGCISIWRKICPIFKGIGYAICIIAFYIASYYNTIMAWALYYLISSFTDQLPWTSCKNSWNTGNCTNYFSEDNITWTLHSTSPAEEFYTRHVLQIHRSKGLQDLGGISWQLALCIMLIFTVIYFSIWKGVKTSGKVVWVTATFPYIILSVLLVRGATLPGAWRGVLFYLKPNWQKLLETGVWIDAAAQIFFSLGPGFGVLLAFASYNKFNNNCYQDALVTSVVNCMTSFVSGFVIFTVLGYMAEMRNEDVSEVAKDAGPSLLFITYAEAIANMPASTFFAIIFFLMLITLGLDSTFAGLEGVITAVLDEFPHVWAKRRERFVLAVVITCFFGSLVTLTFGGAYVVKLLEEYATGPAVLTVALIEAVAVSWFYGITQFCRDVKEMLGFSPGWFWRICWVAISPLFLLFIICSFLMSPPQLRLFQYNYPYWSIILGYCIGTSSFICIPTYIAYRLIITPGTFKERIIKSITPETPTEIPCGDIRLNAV

What all share (assay type): cell-based
Test [1] has as its target human norepinephrine transporter (hNET) (Homo sapiens, UniProt P23975). The experiment in a line: Neurotransmitter transporter uptake assay, HEK-hNET. The conditions noted are these: read-out: % Inhibition at 10 μM hNET.
Test [2] concerns the target human dopamine transporter (hDAT) (Homo sapiens, UniProt Q01959). The test is described as follows: Neurotransmitter transporter uptake assay, HEK-hDAT. The conditions noted are these: read-out: % Inhibition at 10 μM hDAT.
Test [3] deals with human serotonin transporter (hSERT) (Homo sapiens, UniProt P31645). The experiment in a line: Neurotransmitter transporter uptake assay, HEK-hSERT. Particulars: read-out: % Inhibition at 10 μM hSERT.

Usually inhibition stands for the change of the read-out against control, counted positive when it falls. Consider `CN1c2ccccc2C(NCCCCCCC(=O)O)c2ccc(Cl)cc2S1(=O)=O` (stereo not drawn) [Tianeptine, reference compound], for which the inhibition at 10 µM was 27.2 ± 6.2% in test [1], 20.3 ± 6.2% in test [2] and 16.6 ± 10% in test [3].
